# At least one compound was matched to its structure with a doubt left.
# Tested on: DNFB-induced ear swelling
# Assay: Contact hypersensitivity model in mice (CHS), DNFB-induced ear swelling
# Type: in vivo
# Details: 1 mg/kg s.c., 30 minutes before challenge; DNFB-sensitized Balb/C mice; p<0.01 vs sensitized; FIG. 4
# Procedure: Balb/C female mice of about 8-12 weeks of age (18-22 g b.w.) were used for the Contact Hypersensitivity model. They were from Charles River Italia (Calco, Italy) and housed under the following constant environmental conditions: temperature 22° C.±2, relative humidity 55%±10, 15-20 air changes per hour (filtered on HEPA 99.99%) and artificial light with a 12-hour circadian cycle (7 a.m.-7 p.m.). All in vivo studies were performed according to the European Council Directive 86/609/EEC and the Italian Ministry guidelines for the care and use of experimental animals (decree #116/92). All the experimental protocols were authorized by the Italian Ministry of Health.
# All chemicals were purchased from Sigma-Aldrich (St. Louis, Mo., USA) unless otherwise specified. […]
# For the induction of CHS, 8-12 weeks old Balb/C mice, were sensitized by applying once a sensitizing solution of 35 μl of 0.5% DNFB in acetone/olive oil (4:1) on the shaved back. […] Ear thickness was monitored using a caliper at day 0, at day 5 (4 h, 8 h), at day 6 (24 h) and at day 7 (48 h). […] Ear thickness of both ears was measured at three point each, ear swelling was evaluated according to the following formula: […]
# All values in the text and figures are presented as mean±SEM of (n) independent experiments. All data were analysed by one-way ANOVA followed by Tukey test. […]
structure (smiles),measurement,value
C[C@@H]1C[C@H]2[C@@H]3CCC4=CC(=O)C=C[C@]4(C)[C@@]3(F)[C@@H](O)C[C@]2(C)[C@@]1(O)C(=O)CO [dexamethasone],ear swelling,significantly reduced ear swelling
